Like-named read-outs stand apart in the source and are kept apart here. Part of at least one peptide drawing is inferred or uncertain, most often the ends. Bridge positions count the residues as written; N and C are the ends. Ends that are not written are not given here.
Tests used:
Type in all cases: cell-based
[1] = system: Clostridium perfringens ATCC 13124; conditions: 37° C., 10 hours
[2] = system: Streptococcus aureus FDA 209P; experiment: Potency in preservation: viable bacterial counts in inoculated soya-bean milk; conditions: 37° C.
Escherichia IID 5208 = experiment: Test 3 bacterial growth inhibition in MRS broth (turbidity at 660 nm); conditions: 37° C., 10 hours
Pseudomonas = experiment: as above; conditions: 37° C., 10 hours
[3] = system: Staphylococcus aureus SCD; experiment: as above; conditions: text: Staphylococcus aureus, concentration of 1 μM
Escherichia IID 562 = experiment: as above; conditions: 37° C., 10 hours
Clostridium butiricum = conditions: for bacterial growth inhibition: 37° C., 10 hours
[4] = system: Gram-negative bacteria tested; experiment: Test 3 bacterial growth inhibition, summary for Gram-negative bacteria; conditions: 0.01-1 μM

Question: Which results are given for “VTCDLLSFKGQVNDSACAANCLSLGKAGGHCEKGVCICRKTSFKDLWDKYF (disulfide 3-31, 17-36, 21-38) [polypeptide]”?
Answer: bacterial growth inhibition ([1]; concentration 0.01 μM): - (-: 0-20%); bacterial growth inhibition ([1]; concentration 0.1 μM): - (-: 0-20%); bacterial growth inhibition ([1]; concentration 1 μM): - (-: 0-20%); bacterial growth (viable bacterial counts) ([2]; 10 ppm (about 2 μM) in 5-fold diluted soya-bean milk, inoculated 100/ml, control reached 10^8 /ml within two days): bacterial growth was greatly inhibited; duration of inhibitory effect on bacterial growth ([2]; 10 ppm (about 2 μM) in soya-bean milk, incubated up to one week): lasted for one week; bacterial growth inhibition (Escherichia IID 5208; concentration 0.01 μM): - (-: 0-20%); bacterial growth inhibition (Escherichia IID 5208; concentration 0.1 μM): - (-: 0-20%); bacterial growth inhibition (Escherichia IID 5208; concentration 1 μM): - (-: 0-20%); bacterial growth inhibition (Pseudomonas; concentration 0.01 μM): - (-: 0-20%); bacterial growth inhibition (Pseudomonas; concentration 0.1 μM): - (-: 0-20%); bacterial growth inhibition (Pseudomonas; concentration 1 μM): - (-: 0-20%); growth inhibitory effect [3]: growth inhibitory effect was observed strongly; bacterial growth inhibition (Escherichia IID 562; concentration 0.01 μM): - (-: 0-20%); bacterial growth inhibition (Escherichia IID 562; concentration 0.1 μM): - (-: 0-20%); bacterial growth inhibition (Escherichia IID 562; concentration 1 μM): - (-: 0-20%); growth inhibitory effect (Clostridium butiricum): growth inhibitory effect was observed strongly; bacterial growth inhibition (Clostridium butiricum; concentration 0.01 μM): - (-: 0-20%); bacterial growth inhibition (Clostridium butiricum; concentration 0.1 μM): - (-: 0-20%); bacterial growth inhibition (Clostridium butiricum; concentration 1 μM): - (-: 0-20%); antibacterial activity [4]: no antibacterial activity

Source: US5095005A, “Polypeptide and antibacterial preparations containing the same” (Morinaga Milk Industry Co., Ltd., priority 1989, dated 1992)
